According to patent US11802129B1, “Pyrido[3,4-b]indol-1-one compounds as anticancer agents” (KING FAISAL UNIVERSITY, priority 2023, dated 2023):
Some of these results come from one statement about several compounds together.

Test system: three murine cancer cells and eight human cancer cells
Test: In vitro cytotoxic activity (MTT) assay, panel of cancer cell lines
Assay type: cell-based
Details: result in words

| Compound | cytotoxicity activity |
| --- | --- |
| O=C(O)c1cccc(Nc2c[nH]c(=O)c3[nH]c4ccc(C(=O)O)cc4c23)c1 [Compound 1, 4-((3-carboxyphenyl)amino)-1-oxo-2,9-dihydro-1H-pyrido[3,4-b]indole-6-carboxylic acid] | promising activity against a panel of cancer cell lines at the micromolar range |
| Cc1cccc(Nc2c[nH]c(=O)c3[nH]c4ccc(C(=O)O)cc4c23)c1 [Compound 2, 1-oxo-4-(m-tolylamino)-2,9-dihydro-1H-pyrido[3,4-b]indole-6-carboxylic acid] | promising activity against a panel of cancer cell lines at the micromolar range |
| COc1cccc(Nc2c[nH]c(=O)c3[nH]c4ccc(C(=O)O)cc4c23)c1 [Compound 4, 4-((3-methoxyphenyl)amino)-1-oxo-2,9-dihydro-1H-pyrido[3,4-b]indole-6-carboxylic acid] | promising activity against a panel of cancer cell lines at the micromolar range |
| O=C(O)c1ccc2[nH]c3c(=O)[nH]cc(Nc4cc(Cl)cc(Cl)c4)c3c2c1 [Compound 5, 4-((3,5-dichlorophenyl)amino)-1-oxo-2,9-dihydro-1H-pyrido[3,4-b]indole-6-carboxylic acid] | promising activity against a panel of cancer cell lines at the micromolar range |
| CCN(CC)CCNc1c[nH]c(=O)c2[nH]c3ccc(C(=O)O)cc3c12 [Compound 6, 4-((2-(diethylamino)ethyl)amino)-1-oxo-2,9-dihydro-1H-pyrido[3,4-b]indole-6-carboxylic acid] | promising activity against a panel of cancer cell lines at the micromolar range |
| O=c1[nH]cc(Nc2cccc(Cl)c2)c2c1[nH]c1ccc(O)cc12 [Compound 7, 4-((3-chlorophenyl)amino)-6-hydroxy-2,9-dihydro-1H-pyrido[3,4-b]indol-1-one] | promising activity against a panel of cancer cell lines at the micromolar range |
| O=c1[nH]cc(Nc2cccc(Cl)c2)c2c1[nH]c1cc(O)ccc12 [Compound 8, 4-((3-chlorophenyl)amino)-7-hydroxy-2,9-dihydro-1H-pyrido[3,4-b]indol-1-one] | promising activity against a panel of cancer cell lines at the micromolar range |
| O=c1[nH]cc(Nc2cccc(Cl)c2)c2c1[nH]c1cc(O)c(O)cc12 [Compound 9, 4-((3-chlorophenyl)amino)-6,7-dihydroxy-2,9-dihydro-1H-pyrido[3,4-b]indol-1-one] | promising activity against a panel of cancer cell lines at the micromolar range |
| O=C(O)c1ccc2c(c1)[nH]c1c(=O)[nH]cc(Nc3cccc(Cl)c3)c12 [Compound 10, 4-((3-chlorophenyl)amino)-1-oxo-2,9-dihydro-1H-pyrido[3,4-b]indole-7-carboxylic acid] | promising activity against a panel of cancer cell lines at the micromolar range |
| O=C(O)c1ccc2[nH]c3c(=O)[nH]cc(Nc4cccc(Cl)c4)c3c2c1 [Example 3, 4-((3-chlorophenyl)amino)-1-oxo-2,9-dihydro-1H-pyrido[3,4-b]indole-6-carboxylic acid] | promising activity against a panel of cancer cell lines at the micromolar range |
